Source: PubChem BioAssay AID651660 (Broad Institute, 2012)
Among all 1,900 compounds or so, about 15 (0.8%) were called active.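 How the source made its calls: active means every replicate shows at least 50% inhibition; inconclusive means mean inhibition at least 50% but some replicate below; inactive means the rest.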 The list shows a part of the results.

Amino acid sequences for entries named in this document (tags omitted). A change or cut given only in a name is not applied to a line headed by its entry.
UniProt P43351: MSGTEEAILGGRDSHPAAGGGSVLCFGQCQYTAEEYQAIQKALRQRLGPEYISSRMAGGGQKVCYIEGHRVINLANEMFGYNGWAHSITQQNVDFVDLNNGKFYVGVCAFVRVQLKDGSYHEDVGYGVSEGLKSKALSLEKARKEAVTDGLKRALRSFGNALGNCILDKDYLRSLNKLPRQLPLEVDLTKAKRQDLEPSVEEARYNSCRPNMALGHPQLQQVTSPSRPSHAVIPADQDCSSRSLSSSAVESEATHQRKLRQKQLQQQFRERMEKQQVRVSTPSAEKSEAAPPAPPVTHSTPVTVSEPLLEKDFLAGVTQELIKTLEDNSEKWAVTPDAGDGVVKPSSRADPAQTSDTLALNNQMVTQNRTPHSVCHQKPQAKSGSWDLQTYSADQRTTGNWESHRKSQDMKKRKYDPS

biological target: DNA repair protein RAD52 homolog (Homo sapiens) (UniProt P43351); assay: RAD52 ssDNA annealing inhibitors, primary screen, biochemical, FRET, single point (AID 651660); details: Recombinant RAD52 ssDNA annealing, FRET fluorescence, 30 min; at 18.7 µM; active compounds read high;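 further: 0% = median of neutral control wells and 100% = median of positive control wells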

inhibition, inactive:
COc1ccc(C2OC(=O)Cc3cc(OC)c(OC)cc32)cc1 (stereo unspecified) 4.68%
Cc1ccc(C(=O)Nc2ccc(O)cc2C(=O)O)cc1C -17%
CCc1cc(/C(Cc2ccccn2)=N\O)c(O)cc1O -33.7%
CCc1cc(-c2[nH]ncc2-c2ccc3c(c2)OCO3)c(O)cc1O -4.46%
CC(/C=C1\SC(=O)N(CCCC(=O)O)C1=O)=C\c1ccccc1 -7.27%
O=C(O)c1ccc(N2C(=O)/C(=C\c3ccccc3)N=C2c2ccccc2)cc1 -4.94%
COC(=O)c1ccc(CC(=O)c2ccc(O)cc2O)o1 -113%
CO[C@H]1C=CO[C@@]2(C)Oc3c(C)c(O)c4c(O)c(c(C=NN5CCN(C)CC5)c(O)c4c3C2=O)NC(=O)C(C)=CC=C[C@H](C)[C@H](O)[C@@H](C)[C@@H](O)[C@@H](C)[C@H](OC(C)=O)[C@@H]1C -34.4%
CC(=O)Nc1nnc(S(N)(=O)=O)s1 -5.46%
CC(C)Oc1ccc2c(=O)c(-c3ccccc3)coc2c1 4.85%
COc1cc2[nH]c3c(=O)n(CCN4CCOCC4)cnc3c2cc1OC 1.23%
CC(C)N(C(=O)Cc1ccccc1[N+](=O)[O-])C(C)C -1.14%
COc1cc(CNCCc2c[nH]c3ccccc23)cc(Cl)c1OCC(N)=O 17.5%
FC(F)(F)c1ccc(-c2noc(CN3CCCN(C4CCCCC4)CC3)n2)cc1 -1.45%
COc1ccc(Cl)cc1C(=O)NCCc1ccc(S(=O)(=O)NC(=O)NC2CCCCC2)cc1 -27.1%
CC(=O)OCC(=O)C1=CCC2C3CCC4=CC(=O)C=CC4(C)C3(F)C(OC(C)=O)CC12C (stereo unspecified) 4.74%
CC#C[C@]1(O)CC[C@H]2[C@@H]3CCC4=CC(=O)CCC4=C3[C@@H](c3ccc(N(C)C)cc3)C[C@@]21C 30%
COc1ccc(/C=C2\CCc3ccccc3C2=O)c(OC)c1OC -4.76%
COc1ccc(CCNC(=O)CC(c2ccccc2)c2cccc(C)c2O)cc1OC (stereo unspecified) -4.76%
CCOC(=O)C1=C(N)Oc2c(c(=O)[nH]c3ccccc23)C1c1ccccc1 (stereo unspecified) -0.528%
CC1(C)O[C@@H]2C[C@H]3[C@@H]4C[C@H](F)C5=CC(=O)C=C[C@]5(C)[C@@]4(F)[C@@H](O)C[C@]3(C)[C@]2(C(=O)CO)O1 -3.92%
O=C(c1ccc(Cl)cc1)C1CCCN(C(=O)/C=C/c2ccccn2)C1 (stereo unspecified) 6.47%
COc1cc(OC)cc(C(=O)N[C@@H](CCSC)c2nc3ccccc3[nH]2)c1 -2.08%
Cc1ccc(C(=O)COC(=O)c2cnccn2)cc1[N+](=O)[O-] 12.6%
NC12CC3CC(C1)CC(O)(C3)C2 3.29%
COc1cc2c(cc1OC)CN(Cc1ccc(C)s1)CC2 -2.17%
Cc1[nH]c2ccccc2c1C(=O)CN1CCCC1 -20.7%
NC[C@H]1O[C@H](O[C@H]2[C@H](O)[C@@H](O[C@H]3O[C@H](CO)[C@@H](O)[C@H](N)[C@H]3O)[C@H](N)C[C@@H]2N)[C@H](N)C[C@@H]1O 0.0915%
CC(C)C1Cc2[nH]c(=O)c(C(=O)O)cc2CO1 (stereo unspecified) -0.098%
CC1(C)Cc2nc3sc4c(=O)n(CC(N)=O)cnc4c3cc2CO1 -0.15%
Cc1cc(C(C)(C)C)cc(C)c1CC1=NCCN1 -10.1%
CCN(CCCCOC(=O)c1ccc(OC)c(OC)c1)C(C)Cc1ccc(OC)cc1 (stereo unspecified) 4.27%
COC(=O)c1cc(COc2ccc3ccc(=O)oc3c2)c(C)o1 -0.407%
C[C@@H]1C[C@H]2[C@@H]3CCC4=CC(=O)C=C[C@]4(C)[C@@]3(F)[C@@H](O)C[C@]2(C)[C@H]1C(=O)CO 3.64%
COc1cc2nc(N3CCN(C(=O)C4COc5ccccc5O4)CC3)nc(N)c2cc1OC (stereo unspecified) 44.2%
Cc1csc(N)n1 -4.07%
CCCNC(=O)NS(=O)(=O)c1ccc(Cl)cc1 2.05%
CC(=O)O[C@]1(C(C)=O)CC[C@H]2[C@@H]3C=C(Cl)C4=CC(=O)CC[C@]4(C)[C@H]3CC[C@@]21C -5.12%
COc1ccc(O)c(C2=Nc3ccccc3N=C(c3ccccc3)C2)c1 0.319%
NC(N)=NC(N)=Nc1ccc2ccccc2c1 -2.56%
Cc1cc(C(=O)NC(CC(C)C)C(=O)O)cc(C)c1[N+](=O)[O-] (stereo unspecified) -12.7%
COc1ccc(C(=O)N2c3cc4c(cc3C(C)=CC2(C)C)OCO4)cc1 3.89%
CC(C)CN(C)Cc1c(C(=O)N2CCc3ccccc3C2)nc2ccc(Cl)cn12 -3.09%
COc1ccc(CCn2c(C)cc3c(c2=O)C(c2ccncc2)C(C#N)=C(N)O3)cc1OC (stereo unspecified) -0.311%
CC1(C)C2CCC1(C)C(OCC[N+](C)(C)CC(=O)OC1CCCCC1)C2 (stereo unspecified) 31.8%
Cc1ncc(CN2CCC(CO)(CCc3ccccc3)CC2)s1 -2.85%
O=C(/C=C/c1ccccc1)NCC1(c2ccccc2)CCOCC1 1.9%
CC(=O)OC[C@H]1O[C@@H](Sc2cccc3cccnc23)[C@H](OC(C)=O)[C@@H](OC(C)=O)[C@H]1OC(C)=O -3.92%
Nc1nc2c(ncn2COC(CO)CO)c(=O)[nH]1 -6.89%
CCOc1ccc(N2C(=O)CNC2=S)cc1 -8.92%
CNCCc1ccccn1 0.0195%
CC(C)CC(NC(=O)c1cccc(Cl)c1)C(=O)O (stereo unspecified) -8.58%
COc1ccccc1NC(=O)Cn1c(C)cc(=O)c2cccc(OC)c21 1.66%
CC(=O)[C@@]1(O)CC[C@H]2[C@@H]3CCC4=CC(=O)CC[C@]4(C)[C@H]3CC[C@@]21C -7.07%
CC(C)CC(=O)N(Cc1ccc(F)cc1)C1CCS(=O)(=O)C1 (stereo unspecified) -1.69%
COc1ccc(-c2nc3c(=O)n(C)c(=O)[nH]c3n2CCc2ccccc2)cc1 -5.16%
O=C(/C=C/c1ccc(Cl)cc1)NCCc1ccccc1 -0.594%
CCN(CC)C(=O)c1ccc(O)c(OC)c1 -10.5%
CC1(C)CC(NCc2ccccc2)CCO1 (stereo unspecified) -6.22%
O=C1c2ccccc2N2C(=O)c3ccccc3C2N1Cc1ccco1 (stereo unspecified) 3.92%
CC12CN3CC(C)(CN(C1)C3c1ccc([N+](=O)[O-])o1)C2 (stereo unspecified) -2.59%
CCc1c(C(C)=O)oc2ccc3c(C)cc(=O)oc3c12 -11.7%
COc1ccc(CCN2C(=O)CSC2c2ccc(OC)c(OC)c2)cc1OC (stereo unspecified) -11.8%
Cc1ccc(OCc2nc(-c3cccnc3)no2)cc1C -13%
c1ccc2c3c(c(CN4CCCCC4)cc2c1)COC3 -5.26%
Cc1ccc(CSCC(=O)N2CCCC2)cc1 3.83%
O=C(OCC1OC2OC3(CCCCC3)OC2C2OC3(CCCCC3)OC12)c1ccccc1 (stereo unspecified) -6.56%
Cc1ccc(C2CC(=O)C(C=NCCN3CCN(C(=S)Nc4ccccc4)CC3)=C(O)C2)cc1 (stereo unspecified) 4.06%
CCC(C(=O)Nc1ccc2c(c1)OCCO2)c1ccccc1 (stereo unspecified) -13.7%
O=C(CSCc1ccccc1)NCCCN1CCOCC1 7.56%
COc1ccc(C2C(C#N)=C(N)Oc3cc(C)[nH]c(=O)c32)c(OC)c1OC (stereo unspecified) -13.8%
CCC1(c2ccccc2)C(=O)NCNC1=O -11.8%
Cc1oc2ccc(OC(=O)c3cccs3)cc2c1C(=O)OC(C)C -2.63%
C[C@]12CCC(=O)C=C1CC[C@@H]1[C@@H]2CC[C@@]2(C)[C@H]1CC[C@]2(O)C(=O)CO -1.89%
COc1ccc(C2NCCC3(O)CCCCC23)c(OC)c1OC (stereo unspecified) 1.11%
CCOc1ccc(NC(=O)N[C@@H](CCSC)C(=O)OC)cc1 -5.38%
CN(C)CCC(c1ccc(Br)cc1)c1ccccn1 (stereo unspecified) 5.86%
CC(=O)NC1C(OCc2ccccc2)OC(COC(C)=O)C(OC(C)=O)C1OC(C)=O (stereo unspecified) -4.09%
c1ccc(-c2ccc(C(c3ccccc3)n3ccnc3)cc2)cc1 (stereo unspecified) 31.4%
CC1=NS(=O)(=O)c2cc(Cl)ccc2N1 -3.16%
CC(C)NCC(O)COc1ccc(CC(N)=O)cc1 (stereo unspecified) 5.13%
CCOC(=O)[C@H]1O[C@@H]1C(=O)N[C@@H](CC(C)C)C(=O)NCCC(C)C -8.22%
CC[C@H](CO)NCCN[C@H](CC)CO -5.2%
Cc1ccccc1NC(=O)C1(C)Cc2ccccc2C(=O)O1 (stereo unspecified) 4.64%
Cc1cc(-c2nn(-c3ccccc3F)cc2CN2CCC(O)CC2)c(C)s1 10.9%
O=C(O)C1CCN(C(=O)COc2ccc3c4c(c(=O)oc3c2)CCC4)CC1 -9.23%
OC(COCc1ccccc1)CN1CCN(Cc2ccc3c(c2)OCO3)CC1 (stereo unspecified) -1.57%
O=C(NCC1CCCO1)c1ccc(OC2CCN(C(=O)C3CC3)CC2)cc1 (stereo unspecified) -15.9%
CC1(C)CC(C(CC(=O)N2CCCC2)Cc2ccccc2)CCO1 (stereo unspecified) -12.3%
N=c1ccn(CC(=O)NC(N)=O)c2ccccc12 3.93%
COc1ccc(C(CC(=O)N2CCOCC2)C(C)C)cc1 (stereo unspecified) 4.92%

Looked up one by one from the entries so far (3):
inhibition, inactive:
NC12CC3CC(C1)CC(O)(C3)C2 3.29%
Cc1ccc(C2CC(=O)C(C=NCCN3CCN(C(=S)Nc4ccccc4)CC3)=C(O)C2)cc1 (stereo unspecified) 4.06%
O=C(CSCc1ccccc1)NCCCN1CCOCC1 7.56%
